In the supplement of paper PMC10849652:
The list shows a part of the results.

Sequences of proteins named here, by UniProt entry; tags and fusion partners are left off. A change or cut given only in a name is not applied to a line headed by its entry.
UniProt Q92576, whole entry, looked up: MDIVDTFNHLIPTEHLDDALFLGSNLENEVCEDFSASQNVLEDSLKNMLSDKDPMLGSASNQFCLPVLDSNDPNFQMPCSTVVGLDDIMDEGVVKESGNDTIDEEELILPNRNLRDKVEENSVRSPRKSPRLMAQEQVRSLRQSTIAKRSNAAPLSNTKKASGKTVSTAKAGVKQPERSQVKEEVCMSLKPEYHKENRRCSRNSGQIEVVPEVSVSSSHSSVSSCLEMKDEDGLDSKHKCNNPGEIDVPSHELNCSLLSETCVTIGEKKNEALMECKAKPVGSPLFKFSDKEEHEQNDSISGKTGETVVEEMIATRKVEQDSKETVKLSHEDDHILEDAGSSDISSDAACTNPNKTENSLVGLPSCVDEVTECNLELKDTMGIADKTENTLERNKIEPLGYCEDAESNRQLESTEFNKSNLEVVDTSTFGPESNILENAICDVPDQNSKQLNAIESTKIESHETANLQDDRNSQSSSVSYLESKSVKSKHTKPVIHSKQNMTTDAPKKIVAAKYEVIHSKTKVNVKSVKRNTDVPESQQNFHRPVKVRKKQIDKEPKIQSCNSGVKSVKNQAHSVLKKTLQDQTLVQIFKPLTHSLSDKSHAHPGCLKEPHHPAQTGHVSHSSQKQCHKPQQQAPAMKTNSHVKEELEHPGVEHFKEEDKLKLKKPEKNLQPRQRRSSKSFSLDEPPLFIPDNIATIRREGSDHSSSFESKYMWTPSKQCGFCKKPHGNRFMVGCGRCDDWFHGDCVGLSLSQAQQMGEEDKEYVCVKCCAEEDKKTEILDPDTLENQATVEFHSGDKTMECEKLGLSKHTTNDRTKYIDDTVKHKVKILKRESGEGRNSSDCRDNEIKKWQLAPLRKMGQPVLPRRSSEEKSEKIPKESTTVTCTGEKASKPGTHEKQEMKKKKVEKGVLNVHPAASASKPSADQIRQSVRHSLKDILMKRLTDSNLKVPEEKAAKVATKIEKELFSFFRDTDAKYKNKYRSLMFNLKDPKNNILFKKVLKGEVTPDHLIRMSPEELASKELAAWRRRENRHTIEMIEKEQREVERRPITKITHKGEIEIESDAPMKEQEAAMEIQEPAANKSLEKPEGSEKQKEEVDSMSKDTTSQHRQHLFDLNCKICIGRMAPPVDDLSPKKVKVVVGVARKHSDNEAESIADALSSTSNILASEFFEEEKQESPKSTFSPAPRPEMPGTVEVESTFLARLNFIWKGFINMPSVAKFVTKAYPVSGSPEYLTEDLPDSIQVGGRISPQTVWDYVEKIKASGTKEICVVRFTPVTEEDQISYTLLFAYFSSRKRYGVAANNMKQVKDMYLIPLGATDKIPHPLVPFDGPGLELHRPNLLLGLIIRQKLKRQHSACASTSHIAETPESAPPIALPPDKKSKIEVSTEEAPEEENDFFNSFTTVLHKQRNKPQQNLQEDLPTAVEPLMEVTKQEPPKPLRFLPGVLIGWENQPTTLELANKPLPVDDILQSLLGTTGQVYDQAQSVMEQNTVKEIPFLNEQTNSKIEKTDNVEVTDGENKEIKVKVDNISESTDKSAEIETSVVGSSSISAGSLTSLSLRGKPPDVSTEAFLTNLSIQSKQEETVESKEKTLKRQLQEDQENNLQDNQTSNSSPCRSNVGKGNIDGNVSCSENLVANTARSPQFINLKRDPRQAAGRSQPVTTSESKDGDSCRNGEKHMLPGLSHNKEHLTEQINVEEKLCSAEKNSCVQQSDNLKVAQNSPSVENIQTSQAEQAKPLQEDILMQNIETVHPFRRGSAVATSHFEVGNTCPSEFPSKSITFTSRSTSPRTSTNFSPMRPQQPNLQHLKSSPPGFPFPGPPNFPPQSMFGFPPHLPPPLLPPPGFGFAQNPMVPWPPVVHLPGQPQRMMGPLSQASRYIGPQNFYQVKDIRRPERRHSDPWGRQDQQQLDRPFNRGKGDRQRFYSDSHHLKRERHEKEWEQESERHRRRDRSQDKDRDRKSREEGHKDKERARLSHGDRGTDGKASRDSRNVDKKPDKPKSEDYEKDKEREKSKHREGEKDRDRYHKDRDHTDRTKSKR
UniProt Q9Y263: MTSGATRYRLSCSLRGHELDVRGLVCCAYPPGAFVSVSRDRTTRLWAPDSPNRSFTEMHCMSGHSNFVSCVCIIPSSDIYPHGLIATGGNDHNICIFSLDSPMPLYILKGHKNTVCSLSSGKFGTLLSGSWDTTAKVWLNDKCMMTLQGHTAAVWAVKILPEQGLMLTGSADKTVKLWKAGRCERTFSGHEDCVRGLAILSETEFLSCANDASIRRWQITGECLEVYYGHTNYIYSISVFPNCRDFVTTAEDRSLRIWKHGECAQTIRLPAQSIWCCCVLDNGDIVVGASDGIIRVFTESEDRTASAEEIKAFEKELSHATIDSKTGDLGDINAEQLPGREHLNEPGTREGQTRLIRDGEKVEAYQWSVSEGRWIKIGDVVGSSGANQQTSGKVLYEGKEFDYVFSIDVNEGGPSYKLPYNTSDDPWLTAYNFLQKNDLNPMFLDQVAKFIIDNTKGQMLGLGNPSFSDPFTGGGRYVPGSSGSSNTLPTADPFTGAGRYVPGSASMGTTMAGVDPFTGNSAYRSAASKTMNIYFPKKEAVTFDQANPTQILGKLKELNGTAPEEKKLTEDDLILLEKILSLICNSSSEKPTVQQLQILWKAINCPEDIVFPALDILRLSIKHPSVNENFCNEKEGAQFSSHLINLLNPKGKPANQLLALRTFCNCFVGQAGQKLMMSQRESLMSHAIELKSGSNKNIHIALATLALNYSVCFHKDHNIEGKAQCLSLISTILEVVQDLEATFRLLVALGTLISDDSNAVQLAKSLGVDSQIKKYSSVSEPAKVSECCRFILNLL
UniProt P48739: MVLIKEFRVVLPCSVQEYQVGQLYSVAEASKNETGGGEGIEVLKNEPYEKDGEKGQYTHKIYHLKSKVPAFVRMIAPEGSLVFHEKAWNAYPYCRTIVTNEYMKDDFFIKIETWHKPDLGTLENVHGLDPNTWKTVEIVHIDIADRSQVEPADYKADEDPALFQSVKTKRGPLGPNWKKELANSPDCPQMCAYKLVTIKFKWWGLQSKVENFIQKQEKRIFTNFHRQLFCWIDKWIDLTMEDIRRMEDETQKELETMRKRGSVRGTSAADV
UniProt O15067: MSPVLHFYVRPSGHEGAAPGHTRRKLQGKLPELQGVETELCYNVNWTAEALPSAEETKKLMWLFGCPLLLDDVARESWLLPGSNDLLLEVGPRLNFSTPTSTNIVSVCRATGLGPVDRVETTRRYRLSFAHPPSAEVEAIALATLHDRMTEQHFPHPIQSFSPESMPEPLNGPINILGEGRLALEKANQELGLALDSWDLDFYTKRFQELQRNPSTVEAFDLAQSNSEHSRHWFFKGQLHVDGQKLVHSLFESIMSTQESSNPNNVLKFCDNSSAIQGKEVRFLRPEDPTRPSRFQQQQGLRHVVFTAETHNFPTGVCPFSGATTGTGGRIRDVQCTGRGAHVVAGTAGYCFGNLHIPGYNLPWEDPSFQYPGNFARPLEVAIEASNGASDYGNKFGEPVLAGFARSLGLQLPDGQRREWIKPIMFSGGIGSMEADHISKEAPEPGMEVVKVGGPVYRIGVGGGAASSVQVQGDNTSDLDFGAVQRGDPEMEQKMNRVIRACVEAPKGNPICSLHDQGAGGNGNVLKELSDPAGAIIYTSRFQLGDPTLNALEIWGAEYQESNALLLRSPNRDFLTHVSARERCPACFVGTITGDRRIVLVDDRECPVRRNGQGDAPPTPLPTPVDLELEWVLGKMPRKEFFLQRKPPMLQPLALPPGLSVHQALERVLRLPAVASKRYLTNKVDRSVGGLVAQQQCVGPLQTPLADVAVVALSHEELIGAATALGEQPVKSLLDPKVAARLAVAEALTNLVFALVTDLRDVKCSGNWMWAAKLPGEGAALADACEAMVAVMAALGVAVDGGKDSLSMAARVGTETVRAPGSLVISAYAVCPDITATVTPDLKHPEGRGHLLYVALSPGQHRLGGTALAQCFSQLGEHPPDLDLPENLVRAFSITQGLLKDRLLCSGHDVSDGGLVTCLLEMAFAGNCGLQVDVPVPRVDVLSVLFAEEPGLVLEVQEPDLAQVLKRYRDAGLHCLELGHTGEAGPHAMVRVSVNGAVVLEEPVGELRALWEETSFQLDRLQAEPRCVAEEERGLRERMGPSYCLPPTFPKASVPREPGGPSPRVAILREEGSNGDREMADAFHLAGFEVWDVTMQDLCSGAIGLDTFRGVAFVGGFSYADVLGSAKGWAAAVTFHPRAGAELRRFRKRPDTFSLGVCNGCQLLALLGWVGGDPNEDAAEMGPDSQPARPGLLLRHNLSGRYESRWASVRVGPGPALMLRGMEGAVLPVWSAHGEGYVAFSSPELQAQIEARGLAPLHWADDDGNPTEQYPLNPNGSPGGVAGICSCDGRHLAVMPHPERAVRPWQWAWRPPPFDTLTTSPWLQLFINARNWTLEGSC
UniProt P52209: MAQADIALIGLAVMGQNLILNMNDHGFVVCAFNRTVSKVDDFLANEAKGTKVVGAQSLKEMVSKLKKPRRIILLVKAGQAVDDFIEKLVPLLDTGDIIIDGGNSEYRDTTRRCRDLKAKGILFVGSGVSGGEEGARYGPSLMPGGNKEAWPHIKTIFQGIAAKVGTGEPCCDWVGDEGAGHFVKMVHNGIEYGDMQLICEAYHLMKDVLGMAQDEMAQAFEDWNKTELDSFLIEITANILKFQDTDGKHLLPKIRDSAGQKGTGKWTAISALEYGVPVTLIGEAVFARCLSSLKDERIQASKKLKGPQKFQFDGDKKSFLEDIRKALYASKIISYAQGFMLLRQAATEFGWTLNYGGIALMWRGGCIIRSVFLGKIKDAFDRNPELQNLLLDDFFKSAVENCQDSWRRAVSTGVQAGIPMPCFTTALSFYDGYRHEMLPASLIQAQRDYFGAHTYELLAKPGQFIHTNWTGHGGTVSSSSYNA
UniProt Q9NWS0, whole entry, looked up: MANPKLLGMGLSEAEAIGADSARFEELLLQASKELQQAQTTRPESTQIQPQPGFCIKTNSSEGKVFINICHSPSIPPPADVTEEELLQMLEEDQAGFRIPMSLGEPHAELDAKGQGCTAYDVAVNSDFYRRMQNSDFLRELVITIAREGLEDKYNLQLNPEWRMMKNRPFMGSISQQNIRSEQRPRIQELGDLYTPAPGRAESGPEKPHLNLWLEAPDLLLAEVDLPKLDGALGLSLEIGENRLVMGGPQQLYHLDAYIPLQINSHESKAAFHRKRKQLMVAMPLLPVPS
UniProt Q9NRX4: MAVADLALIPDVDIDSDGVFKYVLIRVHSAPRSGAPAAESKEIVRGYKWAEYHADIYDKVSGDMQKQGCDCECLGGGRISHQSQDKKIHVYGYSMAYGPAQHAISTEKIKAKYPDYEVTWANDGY
UniProt P00558: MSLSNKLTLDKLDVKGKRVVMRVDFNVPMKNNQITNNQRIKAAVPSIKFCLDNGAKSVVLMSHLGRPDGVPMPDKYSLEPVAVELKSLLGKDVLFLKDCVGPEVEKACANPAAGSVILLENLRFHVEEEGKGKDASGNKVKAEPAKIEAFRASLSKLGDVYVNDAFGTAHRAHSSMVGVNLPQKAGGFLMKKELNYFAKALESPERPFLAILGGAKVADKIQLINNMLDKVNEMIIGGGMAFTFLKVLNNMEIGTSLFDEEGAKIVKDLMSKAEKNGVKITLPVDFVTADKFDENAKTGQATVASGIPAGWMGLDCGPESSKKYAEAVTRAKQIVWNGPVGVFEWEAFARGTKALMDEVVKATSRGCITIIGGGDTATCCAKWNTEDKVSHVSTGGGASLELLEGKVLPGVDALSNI
UniProt P51178: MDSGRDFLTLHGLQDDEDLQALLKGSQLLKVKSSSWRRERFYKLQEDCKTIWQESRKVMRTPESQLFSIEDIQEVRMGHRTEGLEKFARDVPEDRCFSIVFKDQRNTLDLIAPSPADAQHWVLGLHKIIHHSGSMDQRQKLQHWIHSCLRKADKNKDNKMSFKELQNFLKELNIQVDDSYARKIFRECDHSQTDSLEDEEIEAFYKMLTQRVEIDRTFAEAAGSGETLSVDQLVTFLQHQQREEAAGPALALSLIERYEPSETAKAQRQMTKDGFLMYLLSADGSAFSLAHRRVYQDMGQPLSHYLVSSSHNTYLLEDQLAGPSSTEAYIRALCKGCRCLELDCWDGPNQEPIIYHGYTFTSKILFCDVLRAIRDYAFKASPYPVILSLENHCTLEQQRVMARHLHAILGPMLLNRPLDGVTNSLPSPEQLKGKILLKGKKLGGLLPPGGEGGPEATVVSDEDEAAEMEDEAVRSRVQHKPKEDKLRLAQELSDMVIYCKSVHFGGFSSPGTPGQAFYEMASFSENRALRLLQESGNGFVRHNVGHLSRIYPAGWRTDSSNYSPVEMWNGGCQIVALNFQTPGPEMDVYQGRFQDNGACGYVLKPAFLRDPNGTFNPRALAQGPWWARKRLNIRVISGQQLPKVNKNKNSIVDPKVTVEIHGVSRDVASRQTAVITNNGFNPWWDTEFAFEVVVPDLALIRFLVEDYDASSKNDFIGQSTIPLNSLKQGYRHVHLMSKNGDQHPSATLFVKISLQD

Each target was assayed with c1cn2cc(-c3ccc4cn[nH]c4c3)nc(Nc3ccc(N4CCOCC4)cc3)c2n1 [entospletinib] (assay: log2 fold change, soluble protein after heating vs DMSO (PISA); higher = thermal stabilisation; K562 cells, 10 uM, 30 min; active = over 0.2 and 3.5 SD of the protein, either way, in both replicates (recomputed)).
Summary of the method: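 K562 cells at 2×10^6 cells/mL were given 10 μM compound for 30 min. Aliquots then went through 3 min of heating across 48°C-58°C, were pooled, and were extracted in PBS with 0.5% NP-40 at 4°C, and the supernatant after 21,000xg for 90 min was quantified by TMTpro 16plex LC-MS/MS with channel sums equalised. Thermal stability relative to control samples, from duplicates, is given as log2 fold change.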

Target | log2 fold change
PHB (UniProt P35232) | inactive: -0.006
PKP4 (UniProt Q99569) | inactive: 0.018
PHF3 (UniProt Q92576) | inactive: 0.113
PLAA (UniProt Q9Y263) | inactive: 0.007
PITPNB isoform 3 (UniProt P48739) | inactive: 0.017
PFAS (UniProt O15067) | active: -0.399
PGLS (UniProt O95336) | inactive: 0.045
PI4KA (UniProt P42356) | inactive: 0.123
PFDN5 (UniProt Q99471) | inactive: 0.014
PGD (UniProt P52209) | inactive: -0.05
PGRMC2 isoform 2 (UniProt O15173) | inactive: 0.016
PHB2 (UniProt Q99623) | inactive: -0.01
PKP3 isoform 2 (UniProt Q9Y446) | inactive: 0.199
PIH1D1 (UniProt Q9NWS0) | inactive: -0.023
PHPT1 (UniProt Q9NRX4) | inactive: 0.064
PICALM (UniProt H0YEY8) | inactive: 0.003
PEX2 (UniProt P28328) | inactive: -0.033
PHF10 (UniProt Q8WUB8) | inactive: -0.045
PHF6 (UniProt Q8IWS0) | inactive: 0.089
PFKM isoform 3 (UniProt P08237) | inactive: -0.027
PGK1 (UniProt P00558) | inactive: 0.034
PIGA (UniProt P37287) | inactive: 0.026
PLCD1 isoform 2 (UniProt P51178) | inactive: -0.01
PEX3 (UniProt P56589) | inactive: 0.01
PEX6 (UniProt Q13608) | inactive: 0.033
PFKL isoform 2 (UniProt P17858) | inactive: -0.044
PFKFB4 (UniProt Q16877) | inactive: -0.022
PGAM1 (UniProt P18669) | inactive: 0.022
PICALM (UniProt Q13492) | inactive: 0.023

Random excerpt: two records from the list.
Target | log2 fold change
PHPT1 (UniProt Q9NRX4) | inactive: 0.064
PIGA (UniProt P37287) | inactive: 0.026
